± gives the standard deviation of the averaged measurements. The list shows a part of the results.

By UniProt entry, the sequences of proteins in these tests, tags left out. Where a name states a change or a piece, a line headed by the entry shows the natural chain unless it says otherwise.
UniProt Q8TED0: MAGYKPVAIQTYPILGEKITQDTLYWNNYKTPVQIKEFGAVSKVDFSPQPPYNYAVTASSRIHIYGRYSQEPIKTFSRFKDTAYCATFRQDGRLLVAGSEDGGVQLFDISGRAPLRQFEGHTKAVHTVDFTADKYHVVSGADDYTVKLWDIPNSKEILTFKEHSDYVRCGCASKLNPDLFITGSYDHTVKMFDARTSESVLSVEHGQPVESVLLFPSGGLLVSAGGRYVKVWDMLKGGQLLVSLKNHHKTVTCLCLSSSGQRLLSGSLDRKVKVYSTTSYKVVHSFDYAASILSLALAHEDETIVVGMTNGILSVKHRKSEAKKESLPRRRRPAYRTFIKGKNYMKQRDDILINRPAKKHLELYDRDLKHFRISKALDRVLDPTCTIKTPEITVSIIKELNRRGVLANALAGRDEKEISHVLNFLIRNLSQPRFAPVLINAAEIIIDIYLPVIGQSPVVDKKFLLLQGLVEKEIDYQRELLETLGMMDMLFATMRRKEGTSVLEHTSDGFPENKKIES
UniProt Q8IX90, whole entry: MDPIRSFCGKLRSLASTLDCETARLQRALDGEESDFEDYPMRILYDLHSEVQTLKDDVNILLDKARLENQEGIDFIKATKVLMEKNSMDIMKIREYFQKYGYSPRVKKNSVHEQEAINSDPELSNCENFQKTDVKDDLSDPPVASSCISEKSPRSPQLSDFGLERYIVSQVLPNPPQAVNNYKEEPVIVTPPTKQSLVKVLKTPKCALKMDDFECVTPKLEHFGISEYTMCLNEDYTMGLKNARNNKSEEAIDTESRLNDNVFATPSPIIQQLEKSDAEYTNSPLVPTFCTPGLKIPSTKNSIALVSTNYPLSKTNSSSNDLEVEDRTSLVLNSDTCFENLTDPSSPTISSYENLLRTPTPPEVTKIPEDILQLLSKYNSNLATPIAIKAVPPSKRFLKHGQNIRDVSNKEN
UniProt Q8IYD1, whole entry: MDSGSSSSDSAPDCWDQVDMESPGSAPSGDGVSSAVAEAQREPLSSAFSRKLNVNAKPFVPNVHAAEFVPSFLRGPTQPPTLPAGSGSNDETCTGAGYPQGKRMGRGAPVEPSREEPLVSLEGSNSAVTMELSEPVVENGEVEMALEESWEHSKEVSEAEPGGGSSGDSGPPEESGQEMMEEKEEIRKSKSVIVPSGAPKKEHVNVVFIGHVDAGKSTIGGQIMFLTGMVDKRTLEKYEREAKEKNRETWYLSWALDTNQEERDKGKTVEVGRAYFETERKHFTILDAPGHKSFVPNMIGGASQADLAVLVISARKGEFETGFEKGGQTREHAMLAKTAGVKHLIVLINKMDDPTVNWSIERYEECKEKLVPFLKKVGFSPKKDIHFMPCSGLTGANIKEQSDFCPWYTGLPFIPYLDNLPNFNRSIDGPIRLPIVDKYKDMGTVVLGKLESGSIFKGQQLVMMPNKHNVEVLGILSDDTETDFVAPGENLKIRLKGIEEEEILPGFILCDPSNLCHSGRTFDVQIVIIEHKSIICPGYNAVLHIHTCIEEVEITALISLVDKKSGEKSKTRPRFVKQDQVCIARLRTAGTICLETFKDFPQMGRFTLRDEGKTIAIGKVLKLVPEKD
UniProt Q8IYE0: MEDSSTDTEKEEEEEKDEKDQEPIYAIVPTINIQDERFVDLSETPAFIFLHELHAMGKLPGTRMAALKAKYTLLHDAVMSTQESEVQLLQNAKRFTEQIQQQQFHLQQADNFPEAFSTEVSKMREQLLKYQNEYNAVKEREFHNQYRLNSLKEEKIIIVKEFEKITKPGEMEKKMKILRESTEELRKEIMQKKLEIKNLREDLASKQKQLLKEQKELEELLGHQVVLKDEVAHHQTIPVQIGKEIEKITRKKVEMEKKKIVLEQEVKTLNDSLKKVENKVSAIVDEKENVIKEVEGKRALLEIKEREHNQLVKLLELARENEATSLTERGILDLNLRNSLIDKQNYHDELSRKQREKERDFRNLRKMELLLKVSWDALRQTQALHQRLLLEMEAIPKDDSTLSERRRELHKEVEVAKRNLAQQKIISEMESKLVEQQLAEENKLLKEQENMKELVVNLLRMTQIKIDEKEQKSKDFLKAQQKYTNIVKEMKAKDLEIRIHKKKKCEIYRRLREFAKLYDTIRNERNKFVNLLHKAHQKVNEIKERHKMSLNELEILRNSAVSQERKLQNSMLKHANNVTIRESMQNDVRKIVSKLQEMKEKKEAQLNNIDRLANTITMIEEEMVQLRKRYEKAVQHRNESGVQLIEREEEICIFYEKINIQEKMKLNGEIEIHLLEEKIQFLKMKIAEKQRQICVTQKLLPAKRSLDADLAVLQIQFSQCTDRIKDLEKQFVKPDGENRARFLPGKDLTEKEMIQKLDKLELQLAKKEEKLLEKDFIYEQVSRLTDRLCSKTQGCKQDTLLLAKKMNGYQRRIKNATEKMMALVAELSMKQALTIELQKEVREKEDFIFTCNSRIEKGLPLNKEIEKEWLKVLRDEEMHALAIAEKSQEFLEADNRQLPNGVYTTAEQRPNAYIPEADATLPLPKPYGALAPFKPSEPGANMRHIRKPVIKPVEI
UniProt Q8NHH9: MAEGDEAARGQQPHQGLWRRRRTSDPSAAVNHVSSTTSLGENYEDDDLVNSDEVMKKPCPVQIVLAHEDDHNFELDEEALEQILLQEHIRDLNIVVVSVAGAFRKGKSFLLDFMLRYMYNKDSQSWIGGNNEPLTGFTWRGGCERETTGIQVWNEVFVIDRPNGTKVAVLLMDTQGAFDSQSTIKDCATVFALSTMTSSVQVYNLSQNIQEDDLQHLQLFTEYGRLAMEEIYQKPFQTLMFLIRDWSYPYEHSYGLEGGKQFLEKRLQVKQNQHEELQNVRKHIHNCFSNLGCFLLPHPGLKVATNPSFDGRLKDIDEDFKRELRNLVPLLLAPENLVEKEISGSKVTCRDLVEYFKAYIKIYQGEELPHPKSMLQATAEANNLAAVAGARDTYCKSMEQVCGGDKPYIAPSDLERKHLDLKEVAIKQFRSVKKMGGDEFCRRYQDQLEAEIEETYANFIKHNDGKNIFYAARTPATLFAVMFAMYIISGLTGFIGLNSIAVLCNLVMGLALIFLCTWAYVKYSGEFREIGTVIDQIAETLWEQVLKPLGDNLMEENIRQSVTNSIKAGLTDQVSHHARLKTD
UniProt Q8N488: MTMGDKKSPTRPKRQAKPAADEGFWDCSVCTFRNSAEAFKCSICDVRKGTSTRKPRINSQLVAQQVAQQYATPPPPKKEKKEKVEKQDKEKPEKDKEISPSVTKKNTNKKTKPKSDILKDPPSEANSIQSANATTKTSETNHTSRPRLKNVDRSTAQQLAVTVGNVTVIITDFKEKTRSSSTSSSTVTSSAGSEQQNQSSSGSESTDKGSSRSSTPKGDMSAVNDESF
UniProt Q86X83, whole entry: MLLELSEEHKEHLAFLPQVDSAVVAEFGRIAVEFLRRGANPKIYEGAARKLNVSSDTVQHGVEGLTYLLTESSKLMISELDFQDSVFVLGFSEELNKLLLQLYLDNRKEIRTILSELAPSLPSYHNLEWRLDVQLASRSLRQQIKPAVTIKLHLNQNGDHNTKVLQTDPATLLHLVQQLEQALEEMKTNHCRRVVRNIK
UniProt Q8WTS6: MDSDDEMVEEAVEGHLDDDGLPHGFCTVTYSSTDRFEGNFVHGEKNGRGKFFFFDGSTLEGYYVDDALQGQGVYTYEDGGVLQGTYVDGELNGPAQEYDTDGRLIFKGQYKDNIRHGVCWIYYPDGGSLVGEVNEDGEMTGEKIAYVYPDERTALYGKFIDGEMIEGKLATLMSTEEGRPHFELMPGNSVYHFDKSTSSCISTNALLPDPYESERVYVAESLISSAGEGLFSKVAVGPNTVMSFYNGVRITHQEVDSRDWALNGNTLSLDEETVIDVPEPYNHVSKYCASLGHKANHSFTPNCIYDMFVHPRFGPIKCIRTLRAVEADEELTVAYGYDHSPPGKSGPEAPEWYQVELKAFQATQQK
UniProt Q8IY22: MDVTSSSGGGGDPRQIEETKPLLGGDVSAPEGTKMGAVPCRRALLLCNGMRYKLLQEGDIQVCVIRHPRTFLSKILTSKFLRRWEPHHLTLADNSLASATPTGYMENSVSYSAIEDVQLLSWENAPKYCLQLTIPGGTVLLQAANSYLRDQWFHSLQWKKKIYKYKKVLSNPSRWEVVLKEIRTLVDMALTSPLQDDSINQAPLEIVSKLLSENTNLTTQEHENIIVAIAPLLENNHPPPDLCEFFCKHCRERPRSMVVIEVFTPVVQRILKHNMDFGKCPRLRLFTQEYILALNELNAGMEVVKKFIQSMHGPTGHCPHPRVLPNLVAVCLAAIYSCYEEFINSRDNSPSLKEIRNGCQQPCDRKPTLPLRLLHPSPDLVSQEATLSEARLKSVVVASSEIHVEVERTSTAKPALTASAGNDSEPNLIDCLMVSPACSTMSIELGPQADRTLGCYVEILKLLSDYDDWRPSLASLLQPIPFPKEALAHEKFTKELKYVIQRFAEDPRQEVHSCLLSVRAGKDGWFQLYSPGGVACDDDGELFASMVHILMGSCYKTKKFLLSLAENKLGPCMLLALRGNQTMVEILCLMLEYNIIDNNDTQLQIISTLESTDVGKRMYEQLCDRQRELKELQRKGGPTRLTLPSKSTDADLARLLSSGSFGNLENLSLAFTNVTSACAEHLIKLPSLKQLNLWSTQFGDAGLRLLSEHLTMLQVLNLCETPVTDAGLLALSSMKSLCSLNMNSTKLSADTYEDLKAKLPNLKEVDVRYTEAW
UniProt Q8IU81: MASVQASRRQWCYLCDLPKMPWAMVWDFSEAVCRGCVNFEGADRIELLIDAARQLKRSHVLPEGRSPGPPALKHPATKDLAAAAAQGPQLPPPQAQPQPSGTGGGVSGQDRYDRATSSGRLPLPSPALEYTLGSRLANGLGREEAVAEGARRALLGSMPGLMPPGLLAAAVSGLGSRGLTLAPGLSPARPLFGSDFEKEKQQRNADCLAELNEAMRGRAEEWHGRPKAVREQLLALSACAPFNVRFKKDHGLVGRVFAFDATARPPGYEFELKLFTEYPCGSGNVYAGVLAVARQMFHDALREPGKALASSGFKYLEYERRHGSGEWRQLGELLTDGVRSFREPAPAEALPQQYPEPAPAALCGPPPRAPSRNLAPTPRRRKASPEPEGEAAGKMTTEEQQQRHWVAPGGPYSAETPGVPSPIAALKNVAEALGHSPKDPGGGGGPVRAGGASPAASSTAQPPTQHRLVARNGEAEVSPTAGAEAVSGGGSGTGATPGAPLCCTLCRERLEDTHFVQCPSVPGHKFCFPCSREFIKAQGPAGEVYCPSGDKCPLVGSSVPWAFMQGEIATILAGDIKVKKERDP
UniProt Q8N6Q8: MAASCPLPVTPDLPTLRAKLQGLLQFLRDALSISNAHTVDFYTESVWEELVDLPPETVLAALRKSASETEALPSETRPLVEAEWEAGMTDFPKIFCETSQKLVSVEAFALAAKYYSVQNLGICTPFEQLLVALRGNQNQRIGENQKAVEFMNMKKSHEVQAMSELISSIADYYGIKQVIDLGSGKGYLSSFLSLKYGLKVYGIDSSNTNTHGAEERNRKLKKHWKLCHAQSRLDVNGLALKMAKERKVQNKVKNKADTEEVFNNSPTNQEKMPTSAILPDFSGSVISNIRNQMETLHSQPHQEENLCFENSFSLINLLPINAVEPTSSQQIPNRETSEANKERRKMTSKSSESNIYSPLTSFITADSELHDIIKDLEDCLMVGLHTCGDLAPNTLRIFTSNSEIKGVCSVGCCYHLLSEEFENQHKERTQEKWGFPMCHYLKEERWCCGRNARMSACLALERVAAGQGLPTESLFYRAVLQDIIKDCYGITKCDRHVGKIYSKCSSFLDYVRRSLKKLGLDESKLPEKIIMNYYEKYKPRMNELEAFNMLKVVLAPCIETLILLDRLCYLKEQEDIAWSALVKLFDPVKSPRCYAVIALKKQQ
UniProt Q8ND82: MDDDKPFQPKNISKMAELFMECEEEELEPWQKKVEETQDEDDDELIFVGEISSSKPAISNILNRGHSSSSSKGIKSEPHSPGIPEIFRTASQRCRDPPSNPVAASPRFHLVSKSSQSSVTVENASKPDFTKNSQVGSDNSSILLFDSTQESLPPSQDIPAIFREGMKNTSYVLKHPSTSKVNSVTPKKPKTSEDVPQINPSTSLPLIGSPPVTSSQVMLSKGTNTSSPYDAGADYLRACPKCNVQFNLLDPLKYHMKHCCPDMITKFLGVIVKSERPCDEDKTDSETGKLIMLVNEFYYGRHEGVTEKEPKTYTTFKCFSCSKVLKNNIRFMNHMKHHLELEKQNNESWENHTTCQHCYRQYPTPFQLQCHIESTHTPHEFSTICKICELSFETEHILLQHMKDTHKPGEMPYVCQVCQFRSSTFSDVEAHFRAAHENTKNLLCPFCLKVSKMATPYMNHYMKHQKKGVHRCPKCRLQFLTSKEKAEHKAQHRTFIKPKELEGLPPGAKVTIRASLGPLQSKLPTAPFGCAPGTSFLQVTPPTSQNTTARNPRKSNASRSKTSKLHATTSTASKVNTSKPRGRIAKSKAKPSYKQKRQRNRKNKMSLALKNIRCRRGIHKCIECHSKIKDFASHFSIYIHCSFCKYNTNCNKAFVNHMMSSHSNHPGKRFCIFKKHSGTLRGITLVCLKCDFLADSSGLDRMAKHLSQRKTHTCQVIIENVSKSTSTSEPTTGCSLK

Compound in the first experiment: Nc1nc2c(ncn2[C@@H]2O[C@H](COP(=O)(O)OP(=O)(O)OP(=O)(O)O)[C@@H](O)[C@H]2O)c(=O)[nH]1 [guanosine triphosphate]
Put plainly: NP40-soluble protein abundance relative to vehicle (solubility fold change) (ratio); higher = more soluble protein in presence of GTP. The settings on record: concentration: 8mM. The procedure, abridged:
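Eight concentrations, 0.1 to 10 mM, were tested on Jurkat crude lysate for 10 min at room temperature and then 3 min at 37 °C, in three independent experiments. The lysate was solubilised with 0.8% NP40 and benzonase, ultracentrifuged, and the supernatant TMT-labelled for LC-MS/MS. Each value is the fold change against the detergent-processed vehicle in its own replicate, from vsn-normalised intensities.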
UniProt Q86YS7 and related entries: the NP40-soluble protein abundance stood at 0.981 ± 0.054.

As for UniProt Q8N108 and related entries, the NP40-soluble protein abundance turned out to be 1 ± 0.032.

Consider UniProt Q8N4V1 and related entries, for which the NP40-soluble protein abundance was 0.883 ± 0.11.

In the case of TTC39C (UniProt Q8N584), the NP40-soluble protein abundance was found to be 0.888 ± 0.022.

As to UniProt Q8IWI9 and related entries, the NP40-soluble protein abundance is 1.19 ± 0.12.

As for UniProt Q8TED0 and related entries, the NP40-soluble protein abundance came out at 1.7 ± 0.19.

As to UniProt Q8IY17 and related entries, the NP40-soluble protein abundance was 1 ± 0.013.

With SMC5 (UniProt Q8IY18), the NP40-soluble protein abundance came to 1.05 ± 0.031.

Turning to COMMD1 (UniProt Q8N668), the NP40-soluble protein abundance was found to be 0.925 ± 0.075.

Take UniProt Q8IZ81 and related entries: the NP40-soluble protein abundance is 0.958 ± 0.13.

Regarding UniProt Q8IX90, the NP40-soluble protein abundance is 0.989 ± 0.057.

As for GSPT2 (UniProt Q8IYD1), the NP40-soluble protein abundance was determined as 0.903 ± 0.06.

As to UniProt Q8IYE0 and related entries, the NP40-soluble protein abundance turned out to be 0.93 ± 0.19.

Consider UniProt Q8NFD5 and related entries, for which the NP40-soluble protein abundance came to 1.15 ± 0.18.

For the target “Q86WV7 and related entries (UniProt Q96MW1)”, the NP40-soluble protein abundance amounted to 0.942 ± 0.12.

Regarding UBASH3B (UniProt Q8TF42), the NP40-soluble protein abundance came to 0.957 ± 0.055.

With FBXO22 (UniProt Q8NEZ5), the NP40-soluble protein abundance amounted to 0.865 ± 0.071.

Regarding UniProt Q8NHH9 and related entries, the NP40-soluble protein abundance was found to be 0.968 ± 0.057.

For RYBP (UniProt Q8N488), the NP40-soluble protein abundance came to 0.969 ± 0.13.

As to PNPT1 (UniProt Q8TCS8), the NP40-soluble protein abundance is 0.978 ± 0.03.

Regarding NEK9 (UniProt Q8TD19), the NP40-soluble protein abundance turned out to be 0.984 ± 0.036.

For the target UniProt Q8N9R8 and related entries, the NP40-soluble protein abundance was found to be 1.05 ± 0.072.

UniProt Q86X83 and related entries: the NP40-soluble protein abundance was determined as 0.941 ± 0.028.

UniProt Q8TAF3 and related entries: the NP40-soluble protein abundance is 0.948 ± 0.037.

On to RNF214 (UniProt Q8ND24), for which the NP40-soluble protein abundance was 0.942 ± 0.079.

In the case of FTSJ3 (UniProt Q8IY81), the NP40-soluble protein abundance worked out at 1.16 ± 0.024.

As for UniProt Q8NE86 and related entries, the NP40-soluble protein abundance was 0.915 ± 0.055.

In the case of UniProt Q8NC51 and related entries, the NP40-soluble protein abundance amounted to 1.3 ± 0.084.

Take SETD7 (UniProt Q8WTS6): the NP40-soluble protein abundance was determined as 0.861 ± 0.077.

On to UniProt Q8IYB7 and related entries, for which the NP40-soluble protein abundance is 0.978 ± 0.033.

As for UniProt Q8NHM5 and related entries, the NP40-soluble protein abundance was 1.21 ± 0.075.

On to CMIP (UniProt Q8IY22), for which the NP40-soluble protein abundance came out at 0.95 ± 0.0079.

In the case of IRF2BP1 (UniProt Q8IU81), the NP40-soluble protein abundance came to 0.964 ± 0.047.

On to UniProt Q8N6Q8, for which the NP40-soluble protein abundance stood at 0.902 ± 0.038.

As for UniProt Q8ND82 and related entries, the NP40-soluble protein abundance was determined as 1.14 ± 0.054.

Regarding EXOC8 (UniProt Q8IYI6), the NP40-soluble protein abundance was determined as 0.971 ± 0.016.

As to NUDCD3 (UniProt Q8IVD9), the NP40-soluble protein abundance is 0.899 ± 0.027.

The same experiment, now with this note: concentration: 10mM.
In the case of UniProt Q86YS7 and related entries, the NP40-soluble protein abundance is 1.01 ± 0.082.

For the target UniProt Q8N108 and related entries, the NP40-soluble protein abundance came out at 1 ± 0.046.

As for UniProt Q8N4V1 and related entries, the NP40-soluble protein abundance worked out at 0.971 ± 0.01.

As for TTC39C (UniProt Q8N584), the NP40-soluble protein abundance stood at 0.886 ± 0.038.

UniProt Q8IWI9 and related entries: the NP40-soluble protein abundance is 1.15 ± 0.15.

In the case of UniProt Q8TED0 and related entries, the NP40-soluble protein abundance was 1.69 ± 0.32.

UniProt Q8IY17 and related entries: the NP40-soluble protein abundance is 1.031 ± 0.0086.

In the case of SMC5 (UniProt Q8IY18), the NP40-soluble protein abundance came out at 1.03 ± 0.021.

For the target COMMD1 (UniProt Q8N668), the NP40-soluble protein abundance was found to be 0.934 ± 0.012.

For the target UniProt Q8IZ81 and related entries, the NP40-soluble protein abundance is 0.802 ± 0.051.

As to UniProt Q8IX90, the NP40-soluble protein abundance was 1.01 ± 0.058.

With GSPT2 (UniProt Q8IYD1), the NP40-soluble protein abundance worked out at 0.899 ± 0.067.

Regarding UniProt Q8IYE0 and related entries, the NP40-soluble protein abundance came out at 0.954 ± 0.14.

For UniProt Q8NFD5 and related entries, the NP40-soluble protein abundance worked out at 1.15 ± 0.15.

Regarding “Q86WV7 and related entries (UniProt Q96MW1)”, the NP40-soluble protein abundance was 1.02 ± 0.051.

As for UBASH3B (UniProt Q8TF42), the NP40-soluble protein abundance came out at 0.929 ± 0.083.

On to FBXO22 (UniProt Q8NEZ5), for which the NP40-soluble protein abundance turned out to be 0.843 ± 0.1.

Turning to UniProt Q8NHH9 and related entries, the NP40-soluble protein abundance amounted to 0.991 ± 0.057.

RYBP (UniProt Q8N488): the NP40-soluble protein abundance came out at 1 ± 0.16.

Regarding PNPT1 (UniProt Q8TCS8), the NP40-soluble protein abundance is 0.923 ± 0.03.

As for NEK9 (UniProt Q8TD19), the NP40-soluble protein abundance is 0.96 ± 0.01.

For UniProt Q8N9R8 and related entries, the NP40-soluble protein abundance came to 1.06 ± 0.039.

On to UniProt Q86X83 and related entries, for which the NP40-soluble protein abundance was found to be 0.935 ± 0.022.

Turning to UniProt Q8TAF3 and related entries, the NP40-soluble protein abundance came to 0.948 ± 0.076.

Turning to RNF214 (UniProt Q8ND24), the NP40-soluble protein abundance worked out at 0.912 ± 0.083.

As to FTSJ3 (UniProt Q8IY81), the NP40-soluble protein abundance is 1.18 ± 0.029.

On to UniProt Q8NE86 and related entries, for which the NP40-soluble protein abundance came to 0.868 ± 0.031.

Take UniProt Q8NC51 and related entries: the NP40-soluble protein abundance was 1.59 ± 0.06.

For the target SETD7 (UniProt Q8WTS6), the NP40-soluble protein abundance was determined as 0.856 ± 0.096.

As to UniProt Q8IYB7 and related entries, the NP40-soluble protein abundance came to 0.951 ± 0.043.

For UniProt Q8NHM5 and related entries, the NP40-soluble protein abundance was determined as 1.19 ± 0.15.

Regarding CMIP (UniProt Q8IY22), the NP40-soluble protein abundance turned out to be 0.926 ± 0.043.

Take IRF2BP1 (UniProt Q8IU81): the NP40-soluble protein abundance stood at 0.982 ± 0.069.

With UniProt Q8N6Q8, the NP40-soluble protein abundance turned out to be 0.937 ± 0.11.

UniProt Q8ND82 and related entries: the NP40-soluble protein abundance is 1.31 ± 0.095.

Turning to EXOC8 (UniProt Q8IYI6), the NP40-soluble protein abundance was determined as 0.963 ± 0.053.

For the target NUDCD3 (UniProt Q8IVD9), the NP40-soluble protein abundance was found to be 0.909 ± 0.037.

The values above are taken from the supplement of paper PMC6411743.
